Results of single-concentration screens

Protein sequences, listed by entry. Tags and fused reporters are not part of them. Residues count along the entry.
UniProt P9WNZ1, whole entry: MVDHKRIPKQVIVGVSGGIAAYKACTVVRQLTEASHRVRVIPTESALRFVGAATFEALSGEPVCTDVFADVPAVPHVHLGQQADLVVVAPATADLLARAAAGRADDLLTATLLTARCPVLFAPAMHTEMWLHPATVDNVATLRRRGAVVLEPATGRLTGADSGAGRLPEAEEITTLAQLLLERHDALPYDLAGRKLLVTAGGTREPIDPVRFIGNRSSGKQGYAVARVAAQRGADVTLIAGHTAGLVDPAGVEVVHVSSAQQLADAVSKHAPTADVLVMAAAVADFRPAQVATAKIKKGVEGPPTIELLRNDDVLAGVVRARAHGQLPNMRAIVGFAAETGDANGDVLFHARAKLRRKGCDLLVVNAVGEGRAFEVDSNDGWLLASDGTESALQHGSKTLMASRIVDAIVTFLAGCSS
UniProt Q8IDJ8, 1-583: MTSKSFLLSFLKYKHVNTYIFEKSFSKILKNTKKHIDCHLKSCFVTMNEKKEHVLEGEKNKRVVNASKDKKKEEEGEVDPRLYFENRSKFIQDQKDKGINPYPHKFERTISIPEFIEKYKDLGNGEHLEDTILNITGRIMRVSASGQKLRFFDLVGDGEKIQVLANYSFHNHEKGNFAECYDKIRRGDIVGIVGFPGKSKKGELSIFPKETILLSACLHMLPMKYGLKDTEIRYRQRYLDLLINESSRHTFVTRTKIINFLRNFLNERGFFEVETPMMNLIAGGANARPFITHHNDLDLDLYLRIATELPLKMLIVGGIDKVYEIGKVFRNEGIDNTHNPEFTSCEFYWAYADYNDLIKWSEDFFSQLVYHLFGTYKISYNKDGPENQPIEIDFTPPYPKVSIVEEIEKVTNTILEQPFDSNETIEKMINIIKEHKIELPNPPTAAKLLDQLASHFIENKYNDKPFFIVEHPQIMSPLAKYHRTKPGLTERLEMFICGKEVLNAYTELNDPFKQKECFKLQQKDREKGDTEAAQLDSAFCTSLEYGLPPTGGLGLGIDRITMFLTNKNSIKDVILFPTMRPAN
UniProt P9WFT3, whole entry: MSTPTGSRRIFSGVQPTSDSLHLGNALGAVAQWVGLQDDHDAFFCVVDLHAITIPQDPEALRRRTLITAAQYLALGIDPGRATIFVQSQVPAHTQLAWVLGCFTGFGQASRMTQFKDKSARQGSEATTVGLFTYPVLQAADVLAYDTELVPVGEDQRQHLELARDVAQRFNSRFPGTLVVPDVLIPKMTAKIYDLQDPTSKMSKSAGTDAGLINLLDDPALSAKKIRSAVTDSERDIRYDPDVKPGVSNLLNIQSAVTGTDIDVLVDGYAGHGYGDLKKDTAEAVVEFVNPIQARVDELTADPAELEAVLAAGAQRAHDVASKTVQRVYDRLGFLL
UniProt I6X8D2, whole entry: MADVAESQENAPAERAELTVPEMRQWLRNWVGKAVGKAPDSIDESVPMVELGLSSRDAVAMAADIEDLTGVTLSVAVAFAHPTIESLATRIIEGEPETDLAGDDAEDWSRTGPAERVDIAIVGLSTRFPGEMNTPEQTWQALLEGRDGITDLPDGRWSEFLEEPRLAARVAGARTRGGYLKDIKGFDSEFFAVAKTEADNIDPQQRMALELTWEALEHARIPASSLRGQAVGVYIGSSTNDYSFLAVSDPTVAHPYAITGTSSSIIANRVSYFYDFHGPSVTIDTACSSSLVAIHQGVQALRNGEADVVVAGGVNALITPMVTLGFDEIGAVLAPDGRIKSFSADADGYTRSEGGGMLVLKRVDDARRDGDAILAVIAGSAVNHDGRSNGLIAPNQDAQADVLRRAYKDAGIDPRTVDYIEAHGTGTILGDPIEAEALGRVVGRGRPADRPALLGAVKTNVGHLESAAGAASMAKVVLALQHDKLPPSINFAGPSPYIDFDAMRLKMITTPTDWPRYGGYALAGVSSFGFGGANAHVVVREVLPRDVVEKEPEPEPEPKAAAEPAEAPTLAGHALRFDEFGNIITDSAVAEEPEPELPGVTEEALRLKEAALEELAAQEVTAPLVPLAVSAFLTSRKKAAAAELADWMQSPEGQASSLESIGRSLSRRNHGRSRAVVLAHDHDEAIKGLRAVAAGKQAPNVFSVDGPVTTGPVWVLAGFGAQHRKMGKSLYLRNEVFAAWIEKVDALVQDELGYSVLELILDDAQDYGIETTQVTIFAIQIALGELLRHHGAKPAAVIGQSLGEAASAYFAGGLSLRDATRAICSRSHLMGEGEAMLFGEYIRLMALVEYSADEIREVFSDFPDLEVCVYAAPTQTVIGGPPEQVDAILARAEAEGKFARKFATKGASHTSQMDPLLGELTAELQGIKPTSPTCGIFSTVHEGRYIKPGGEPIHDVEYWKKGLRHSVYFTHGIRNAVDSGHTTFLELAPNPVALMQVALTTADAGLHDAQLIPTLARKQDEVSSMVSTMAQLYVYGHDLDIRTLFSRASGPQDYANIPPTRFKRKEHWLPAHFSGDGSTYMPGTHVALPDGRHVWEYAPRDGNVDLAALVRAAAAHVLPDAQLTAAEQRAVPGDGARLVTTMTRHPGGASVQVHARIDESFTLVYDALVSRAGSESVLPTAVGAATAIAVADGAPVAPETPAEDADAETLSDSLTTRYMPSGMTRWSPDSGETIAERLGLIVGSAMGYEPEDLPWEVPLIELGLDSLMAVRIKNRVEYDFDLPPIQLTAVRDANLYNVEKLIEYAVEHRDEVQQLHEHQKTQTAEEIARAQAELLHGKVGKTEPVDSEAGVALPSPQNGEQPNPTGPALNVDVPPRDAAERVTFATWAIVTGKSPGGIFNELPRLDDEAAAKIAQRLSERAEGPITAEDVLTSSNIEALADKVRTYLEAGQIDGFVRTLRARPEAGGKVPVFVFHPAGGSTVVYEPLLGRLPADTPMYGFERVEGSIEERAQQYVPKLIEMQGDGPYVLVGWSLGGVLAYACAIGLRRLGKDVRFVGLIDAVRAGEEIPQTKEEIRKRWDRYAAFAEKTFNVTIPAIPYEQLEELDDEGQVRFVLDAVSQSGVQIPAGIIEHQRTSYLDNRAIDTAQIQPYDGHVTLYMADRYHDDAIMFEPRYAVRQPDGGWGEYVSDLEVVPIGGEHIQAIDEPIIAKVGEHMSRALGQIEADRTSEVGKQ

CoaBC: 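Enzyme assay of CoaBC with a phosphate dye (Biomol Green) read at 650 nm. Target: Coenzyme A biosynthesis protein CoaBC, Mycobacterium tuberculosis (UniProt P9WNZ1). Compounds at 30 µM. Direction is inferred from only a few compounds that gave an IC50; most scored high, so higher reads as stronger inhibition. Most strong results did not repeat in a second test. About 67,000 compounds were tested under these conditions; 0.06% (about 40) showed 50% or more at least once.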
PfKRS1: 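Lysine-tRNA ligase, Plasmodium falciparum 3D7 (UniProt Q8IDJ8). Enzyme assay of the cytosolic lysyl-tRNA synthetase in 384-well plates, read by luminescence. Compounds at 30 µM. Higher reads as stronger inhibition, judged from the few compounds that gave an IC50. About 69,000 compounds were tested under these conditions; 0.071% (about 49) showed 50% or more at least once.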
Toxoplasma: 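Assay of Toxoplasma gondii numbers, read through their beta-galactosidase reporter with a colour substrate. Tested at 10 µM. Higher reads as fewer parasites (inferred from which compounds were picked for retests). About 67,000 compounds were tested under these conditions; 0.38% (about 260) showed 50% or more at least once.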
MtTrpRS: 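Enzyme assay of tryptophanyl-tRNA synthetase; the read-out is not stated. Target: Tryptophan-tRNA ligase, Mycobacterium tuberculosis (UniProt P9WFT3). Tested at 10 µM. Higher most likely means stronger inhibition; the record gives no direction and few retests gave an IC50. Size under these conditions: about 65,000 compounds, about 64 of them at 50% or above in at least one test.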
Pks13 thioesterase: 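Enzyme assay of the thioesterase domain of polyketide synthase 13; the read-out is not stated. Target: Polyketide synthase Pks13, Mycobacterium tuberculosis (UniProt I6X8D2). Tested at 30 µM. The record gives no direction; the compounds picked for IC50 retests had high values, so higher reads as stronger inhibition. Size under these conditions: about 67,000 compounds, about 300 of them at 50% or above in at least one test.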

Results are given as percent effect.
The record does not define 0% and 100%; most values in the screen are far below 50% and negative numbers occur (in some assays of this library far below -100).
Compounds were drawn at random from those tested, without regard to their results.
A dash means the value is not listed here; it may have been measured.

SMILES,CoaBC,PfKRS1,Toxoplasma,MtTrpRS,Pks13 thioesterase
CC(C)(CNc1cc(F)ccc1F)S(C)(=O)=O,-3.178%,2.295%,11.68%,-1.341%,-1.741%
CS(=O)(=O)NC[C@H]1Cn2c(-c3ccc4c(c3)OCCO4)cnc2CO1,15.23%,5.624%,-3.482%,2.049%,-7.275%
N#Cc1ccc(NC2CCN(CC(F)F)CC2)c(F)c1,7.118%,0.3673%,5.833%,-2.852%,1.392%
O=C(N1CCCCC1)N1CCN(CC(O)c2ccc(F)cc2)CC1 (stereo unspecified),1.33%,3.82%,-12.28%,-1.258%,5.375%
[H][C@]12CC[C@]([H])(CN(C(=O)c3nnc4n3CCCCC4)C1)N(C)C2=O,-,-,3.653%,-,-
CC(NCCN1CCC(N(C)C)CC1)c1ccc(F)cc1N(C)C (stereo unspecified),-21.52%,1.039%,2.835%,3.193%,19.7%
NC(=O)c1cc2c(nc1N)CCN(C(=O)C1CCCCC1)C2,4.821%,-0.4862%,3.866%,12.08%,6.915%
CN(C1CCCN(c2ccccn2)C1)S(=O)(=O)N1CCOCC1 (stereo unspecified),-5.782%,-0.07114%,10.15%,-3.87%,-2.93%
COc1cccc(CN2CCC3(CC2)CCN(c2ncc(F)cn2)C3)c1.O=C(O)C(F)(F)F,-,-,6.929%,-,-
[H][C@@]12CN(C(=O)C3CCOC3)C[C@]1([H])C(=O)N(c1ccccc1)C2 (stereo partly specified),-,-,4.155%,-,-
O=C(NC(C(=O)Nc1cc[nH]n1)c1ccccc1)C1CCC1 (stereo unspecified),2.948%,0.2072%,21.38%,-0.07468%,-10.95%
O=C(CC1CC1)NCc1cn2c(n1)CN(Cc1cccc(F)c1)CC2.O=C(O)C(F)(F)F,-,-,-0.4258%,-,-
Cc1cccc(CN2C[C@@H]3COC[C@]3(COc3ccc(C#N)cn3)C2)n1,-4.946%,1.681%,-,6.003%,-20.12%
CN(Cc1ccc(OCC(=O)N2CCOCC2)cc1)S(C)(=O)=O,-1.597%,-5.495%,5.62%,3.038%,2.907%
CC1CN(C(=O)CN(Cc2ccco2)C2CC2)CCO1 (stereo unspecified),5.128%,-0.4728%,-7.974%,-0.07819%,-7.343%
c1cncc(NCCNC2CCSC2)c1 (stereo unspecified),17.36%,-1.533%,9.091%,13.28%,18.06%
Fc1cnc(N2CCN3C[C@H](Oc4cccnc4)C[C@H]3C2)nc1,3.758%,3.228%,-,-,17.43%
O=C(Cc1ccc2c(c1)CCO2)N1CCN(c2ccccn2)CC1,7.908%,1.582%,8.647%,-14.46%,-6.537%
c1cc(CN2CCCC2)cc(-n2ccnc2-c2ccncc2)c1,15.43%,1.275%,1.441%,-0.3018%,-25.22%
Cc1ccc2c(c1)OC1(NC2=O)C(=O)N(C)c2ccccc21 (stereo unspecified),5.897%,4.114%,-17.27%,-0.8974%,-27.6%
Cc1nnc(N2CCCC3(CN(c4cccc(F)c4)CCO3)C2)o1 (stereo unspecified),-4.421%,3.706%,8.465%,2.948%,-24.61%
N#Cc1ccccc1N1CCCN(C(=O)NCc2cc[nH]n2)CC1,1.916%,0.08779%,-7.78%,-5.649%,0.6884%
Cc1nc(C)n(CC2CCCN(CCOc3ccc(C#N)cc3)C2)n1 (stereo unspecified),4.724%,-0.3946%,-7.005%,0.6877%,-14.61%
Cc1n[nH]cc1CNC1(c2ccc(F)cc2)CCCC1,10.54%,1.64%,-3.816%,0.7802%,-19.44%
CNC(=O)CSc1cnn(CC(=O)Nc2cccc(Cl)c2C)c(=O)c1Cl,1.493%,-1.078%,1.204%,0.4989%,-7.926%
CC(C)CN1C[C@H]2N(c3ncccn3)CCC[C@@]2(C(=O)NCC2CC2)C1,1.235%,2.41%,-,-,-
Cc1cc2c(=O)n3c(nc2s1)CCN(Cc1c[nH]cn1)CC3,-0.7299%,0.00768%,-,-0.7536%,7.473%
CCN1CCCCC1C(=O)N1CCC(OC2CCCC2)CC1 (stereo unspecified),-0.6075%,2.627%,-,0.6431%,-3.413%
CN(C)C(=O)CNC(CC(F)(F)F)c1ccc(Cl)cc1 (stereo unspecified),0%,-1.767%,0.885%,-1.5%,6.159%
CC(C)(C)OC(=O)N1CCN(C(=O)CCn2cccn2)CC1,5.604%,-0.07193%,-0.229%,-2.032%,-30.04%
CC(C)NC(=O)N1CCc2onc(C(=O)Nc3cccnc3)c2C1,4.58%,4.956%,-,-5.416%,-28.11%
Cc1cccc(COC[C@H]2CC[C@H]3[C@H](CCN3C(=O)CC3CC3)O2)n1,0.7772%,-1.251%,-,-0.7049%,-20.1%
CCCn1ncc(C(=O)N2CCN(C3CCCC3)CC2)c1C,0.2179%,1.23%,-3.549%,2.286%,15.79%
O=C(O)C(F)(F)F.O=C(O)C(F)(F)F.[H][C@@]12CN(C)CCO[C@]1([H])CN(S(=O)(=O)c1cccnc1)C2,-,-,-2.243%,-,-
CC(O)CN1CCC(CNCc2cccc(C(=O)N(C)C)c2)CC1 (stereo unspecified),0.5821%,1.941%,29.67%,-0.2825%,-0.1552%
Cc1cc(C(F)(F)F)nn1C(C)C(=O)Nc1ccc(Cl)cn1 (stereo unspecified),5.19%,5.217%,-4.151%,4.339%,-3.711%
CC(NCc1cccc(Cl)c1)c1ccc(OCC(=O)NC2CC2)cc1 (stereo unspecified),6.234%,1.944%,-9.187%,-4.984%,-9.322%
O=C1CC(c2ccc(C(=O)O)cc2)c2ncn(-c3ccc(Cl)cc3)c2N1 (stereo unspecified),14.35%,11.23%,-7.844%,-2.632%,-0.7434%
CCOC1COC2(CCN(c3ncc(C)cn3)CC2)C1 (stereo unspecified),-0.7317%,3.397%,20.9%,-,10.55%
Cc1ccc(SC2CCCC2)c(C(=O)NCCO)c1,3.03%,2.764%,-11.09%,4.272%,-39.21%
CC(C)C(=O)N1CCC(NCc2c(C(C)C)nn(C)c2N(C)C)CC1,-1.474%,2.011%,22.19%,3.809%,-7.823%
CCNC(=O)c1cn2cc(-c3ccccc3Cl)n(CC3CC3)c(=O)c2n1,2.814%,-3.979%,18.03%,-5.475%,-33.86%
CC(C)CN1C(=O)C2(CCCC2)NC1c1c[nH]nc1-c1cccnc1 (stereo unspecified),-0.3968%,5.091%,2.519%,-6.48%,-2.57%
c1cnc(N2CCO[C@H]3[C@H](OCC4CCOCC4)CC[C@@H]32)nc1,1.733%,4.002%,-,-,-28.63%
[H][C@]12CCN(c3ncc(C)cn3)CC[C@@]1([H])S(=O)(=O)N(CCC(C)C)C2,-,-,-1.847%,-,-
O=C(c1cnc(-c2cccs2)s1)N1CCCC(n2cccn2)C1 (stereo unspecified),8.422%,17.03%,3.733%,-0.3912%,13.09%
CN(C)CCn1c2c(ccc1=O)CC(NC(=O)NC1CCCC1)CC2 (stereo unspecified),1.707%,1.202%,-,-,9.851%
O=C(O)C(F)(F)F.[H][C@@]12CCN(S(=O)(=O)CC)C[C@]1([H])[C@@H](CN(C)C)OC2,-,-,-6.882%,-,-

Source: ChEMBL document CHEMBL3988442, “University of Dundee, Small-Polar-MMV Screening Library” (2021).